Changes are numbered by the printed parent chain. In names and notes the source's numbering stands. These are yes or no findings as the source states them, for the method shown. Binding seen in cells or lysates may run through a third protein. Some results given as binding are weak or reduced against the parent protein; the word gives no strength. For some assays here: Sequences can lack the tags named with a protein.
B1: T7-FoxM1B WT protein (CMV T7-FoxM1B; CMV WT FoxM1B 1-748) (protein, not shown: small tags and cut ends)
chain: MKTSPRRPLILKRRRLPLPVQNAPSETSEEEPKRSPAQQESNQAEASKEVAESNSCKFPAGIKIINHPTMPNTQVVAIPNNANIHSIITALTAKGKESGSSGPNKFILISCGGAPTQPPGLRPQTQTSYDAKRTEVTLETLGPKPAARDVNLPRPPGALCEQKRETCADGEAAGCTINNSLSNIQWLRKMSSDGLGSRSIKQEMEEKENCHLEQRQVKVEEPSRPSASWQNSVSERPPYSYMAMIQFAINSTERKRMTLKDIYTWIEDHFPYFKHIAKPGWKNSIRHNLSLHDMFVRETSANGKVSFWTIHPSANRYLTLDQVFKQQKRPNPELRRNMTIKTELPLGARRKMKPLLPRVSSYLVPIQFPVNQSLVLQPSVKVPLPLAASLMSSELARHSKRVRIAPKVLLAEEGIAPLSSAGPGKEEKLLFGEGFSPLLPVQTIKEEEIQPGEEMPHLARPIKVESPPLEEWPSPAPSFKEESSHSWEDSSQSPTPRPKKSYSGLRSPTRCVSEMLVIQHRERRERSRSRRKQHLLPPCVDEPELLFSEGPSTSRWAAELPFPADSSDPASQLSYSQEVGGPFKTPIKETLPISSTPSKSVLPRTPESWRLTPPAKVGGLDFSPVQTSQGASDPLPDPLGLMDLSTTPLQSAPPLESPQRLLSSEPLDLISVPFGNSSPSDIDVPKPGSPEPQVSGLAANRSLTEGLVLDTMNDSLSKILLDISFPGLDEDPLGPDNINWSQFIPELQ
B2: endogenous mouse p19^ARF tumor suppressor protein (protein)
chain: MGRRFLVTVRIQRAGRPLQERVFLVKFVRSRRPRTASCALAFVNMLLRLERILRRGPHRNPGPGDDDGQRSRSSSSAQLRCRFELRGPHYLLPPGDRRSAGRLPGHAGGAARVRGSAGCARCLGSPAARLGPRAGTSRHRAIFAFRWVLFVFRWVVFVYRWERRPDRRA
B3: HA-p19^ARF WT protein (protein, not shown: small tags and cut ends)
chain: B2 chain
B4: T7-FoxM1B T585A mutant protein (protein, not shown: small tags and cut ends)
chain: B1 chain with T585A
B5: T7-FoxM1B T596A mutant protein (protein, not shown: small tags and cut ends)
chain: B1 chain with T596A
B6: T7-FoxM1B S657A mutant protein (protein, not shown: small tags and cut ends)
chain: B1 chain with S657A
B7: GFP-FoxM1B fusion protein, wild type (CMV GFP-FoxM1B; GFP-T7-FoxM1B WT; GFP-FoxM1B 1-748 full-length) (protein, not shown: large carriers; small tags and cut ends)
chain: B1 chain

The chains behind the UniProt entries cited, without tags or fusion partners.
UniProt P06493: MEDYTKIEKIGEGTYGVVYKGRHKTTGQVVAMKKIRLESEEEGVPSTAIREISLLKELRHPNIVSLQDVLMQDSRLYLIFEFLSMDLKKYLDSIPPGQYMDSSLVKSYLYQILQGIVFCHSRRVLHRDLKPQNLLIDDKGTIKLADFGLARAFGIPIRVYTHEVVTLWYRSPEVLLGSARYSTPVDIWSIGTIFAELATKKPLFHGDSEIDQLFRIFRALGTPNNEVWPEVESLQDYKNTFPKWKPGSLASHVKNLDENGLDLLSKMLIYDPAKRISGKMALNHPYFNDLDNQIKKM

Key:
[1] = biological target: Cdk1 protein (human) (UniProt P06493); assay: Co-IP from transfected U2OS extracts with Cdk1 antibody, Western blot with T7 tag antibody
[2] = biological target: T1, endogenous mouse FoxM1B protein (mouse) (UniProt O08696); assay: Co-IP with p19ARF antibody AB80, Western blot with mouse FoxM1B antibody, mouse liver and MEF extracts
T1 sequence (looked up): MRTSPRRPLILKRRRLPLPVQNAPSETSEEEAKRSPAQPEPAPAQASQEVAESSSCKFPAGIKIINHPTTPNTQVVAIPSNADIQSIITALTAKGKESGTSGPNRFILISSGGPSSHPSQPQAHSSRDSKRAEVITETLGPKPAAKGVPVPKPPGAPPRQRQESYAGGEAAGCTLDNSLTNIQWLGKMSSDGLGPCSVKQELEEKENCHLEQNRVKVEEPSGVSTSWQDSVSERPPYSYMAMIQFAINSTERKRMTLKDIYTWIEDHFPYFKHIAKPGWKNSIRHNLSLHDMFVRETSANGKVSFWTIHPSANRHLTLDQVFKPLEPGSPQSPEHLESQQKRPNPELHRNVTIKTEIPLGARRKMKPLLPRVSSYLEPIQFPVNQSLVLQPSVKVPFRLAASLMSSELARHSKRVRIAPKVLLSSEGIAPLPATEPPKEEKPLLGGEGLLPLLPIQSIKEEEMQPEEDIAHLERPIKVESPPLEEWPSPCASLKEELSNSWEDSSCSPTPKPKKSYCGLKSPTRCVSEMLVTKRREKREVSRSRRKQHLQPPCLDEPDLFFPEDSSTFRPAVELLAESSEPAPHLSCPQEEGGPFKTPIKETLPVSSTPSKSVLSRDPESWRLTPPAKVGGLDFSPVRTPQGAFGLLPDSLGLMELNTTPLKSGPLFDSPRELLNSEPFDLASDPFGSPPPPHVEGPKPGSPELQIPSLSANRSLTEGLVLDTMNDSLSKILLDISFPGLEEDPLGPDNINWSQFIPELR

[3] = biological target: T2, GFP-FoxM1B fusion protein, wild type (CMV GFP-FoxM1B; GFP-T7-FoxM1B WT; GFP-FoxM1B 1-748 full-length) (human) (UniProt Q08050); assay: Co-IP of FIG. 15D, transfected U2OS extracts
T2 sequence: B1 chain

[4] = biological target: T2, GFP-FoxM1B fusion protein, wild type (CMV GFP-FoxM1B; GFP-T7-FoxM1B WT; GFP-FoxM1B 1-748 full-length) (human); assay: Co-IP with HA antibody, Western blot with GFP antibody, transfected U2OS extracts
[5] = biological target: Cdk1 protein (human) (UniProt P06493); assay: Co-IP with Cdk1 polyclonal antibody, Western blot with T7 epitope antibody

Row | Binder | binding [1] | also measured
1 | B1 | binds | –
2 | B2 | – | binding [2]: binds
3 | B3 | – | binding [3]: binds; binding [4]: binds
4 | B4 | binds | –
5 | B5 | binds | –
6 | B6 | binds | –
7 | B7 | – | binding [5]: binds

— patent US20130196933A1
